PubChem BioAssay AID504774 – Drosophila RNAi Screening Center | 2011

Test: 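Knock-downs that shift viability of MMS-exposed cells relative to untreated ones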 (primary screen)
Cell system: Drosophila Kc167 cells
Reagent: long dsRNA against Drosophila genes, about 0.25 µg dsRNA per well
Timing: about 6 days: 3 days knock-down, then 3 days with or without MMS
Conditions: methyl methanesulphonate 0.004% (w/v) for 3 days after knock-down
Read-out: 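Viability in wells given MMS, read as ATP luminescence, normalised by quantiles plate by plate and averaged across replicates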
Scale: mean viability with MMS and viability with MMS: higher = more surviving cells after MMS
In all, the deposit lists about 23,000 reagents; shown is an unselected part of those that have a named target and a result. 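Values are quantile-normalised luminescence on an arbitrary scale; higher means more cells surviving MMS.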 Further read-outs or replicates are left out here. No sequences are given here.

no.	gene knocked down	DRSC id	mean viability with MMS	viability with MMS, replicate 1
1	CG7309	DRSC03045	3.75e6	3.90e6
2	Hibch (3-hydroxyisobutyryl-CoA hydrolase)	DRSC15705	3.35e6	3.76e6
3	Bap170 (Brahma associated protein 170kD)	DRSC04964	3.51e6	3.99e6
4	Bap170 (Brahma associated protein 170kD)	DRSC21826	3.51e6	3.96e6
5	CG2750	DRSC19867	3.73e6	4.08e6
6	CG5897	DRSC10555	3.56e6	4.10e6
7	oaf (out at first)	DRSC00831	3.52e6	3.99e6
8	CG11663	DRSC17793	3.19e6	3.73e6
9	CG11663	DRSC23063	3.52e6	3.90e6
10	Scgbeta (Sarcoglycan beta)	DRSC15854	3.70e6	4.12e6
11	cta (concertina)	DRSC03769	3.50e6	3.84e6
12	CSN1a (COP9 signalosome subunit 1a)	DRSC01951	3.46e6	3.93e6
13	CG42729	DRSC10236	3.47e6	3.92e6
14	S-Lap2 (Sperm-Leucylaminopeptidase 2)	DRSC10628	3.74e6	4.25e6
15	sPLA2 (secretory Phospholipase A2)	DRSC06041	3.53e6	3.98e6
16	Ugt35C1 (UDP-glycosyltransferase family 35 member C1)	DRSC16080	3.37e6	3.80e6
17	CR11235 (pseudo)	DRSC20480	3.52e6	3.99e6
18	jp (junctophilin)	DRSC02213	3.76e6	4.44e6
19	jp (junctophilin)	DRSC02744	3.45e6	3.94e6
20	eIF4G1 (eukaryotic translation initiation factor 4G1)	DRSC17218	2.99e6	3.69e6
21	CG6729	DRSC02984	3.59e6	4.10e6
22	CG6729	DRSC22793	3.47e6	4.05e6
23	Fer3 (48 related 3)	DRSC16133	3.56e6	4.00e6
24	EbpIII (Ejaculatory bulb protein III)	DRSC04638	3.65e6	4.13e6
25	sra (sarah)	DRSC17015	3.59e6	4.11e6
26	Zir (Zizimin-related)	DRSC00307	3.28e6	3.75e6
27	Pcyt1 (Phosphocholine cytidylyltransferase 1)	DRSC08157	3.61e6	4.11e6
28	CG9377	DRSC03217	3.43e6	3.97e6
29	Pvf3 (PDGF- and VEGF-related factor 3)	DRSC02284	3.50e6	3.95e6
30	Pvf3 (PDGF- and VEGF-related factor 3)	DRSC02285	3.69e6	4.24e6
31	Pvf3 (PDGF- and VEGF-related factor 3)	DRSC02286	3.48e6	3.91e6
32	Pvf3 (PDGF- and VEGF-related factor 3)	DRSC02751	3.52e6	4.03e6
33	ppk7 (pickpocket 7)	DRSC03236	3.45e6	4.01e6
34	Cyp313a5 (Cytochrome P450 313a5)	DRSC16628	3.74e6	4.17e6
35	jagn (jagunal)	DRSC12152	3.60e6	3.92e6
36	CG9121	DRSC03142	3.49e6	3.97e6
37	bib (big brain)	DRSC03496	3.52e6	4.04e6
38	CG14036	DRSC02361	3.55e6	4.07e6
39	CG32198	DRSC09553	3.29e6	3.70e6
40	CG10680	DRSC02093	3.68e6	4.12e6
41	CG6254	DRSC16002	3.50e6	3.84e6
42	CG31321	DRSC13028	3.47e6	3.92e6
43	DIP2 (DISCO Interacting Protein 2)	DRSC08582	3.53e6	4.08e6
44	FBXO11 (F-box protein 11)	DRSC16497	3.54e6	4.04e6
45	CaBP1 (calcium-binding protein 1)	DRSC01984	3.66e6	4.16e6
46	Mst98Cb (Male-specific RNA 98Cb)	DRSC16750	3.66e6	4.26e6
47	Mst98Cb (Male-specific RNA 98Cb)	DRSC22495	3.58e6	3.98e6
48	TfIIA-L (Transcription factor IIA L)	DRSC16882	3.40e6	3.88e6
49	CG16734	DRSC15143	3.24e6	3.67e6
50	nyo (nyobe)	DRSC15029	3.50e6	3.81e6
51	nyo (nyobe)	DRSC15030	3.54e6	3.83e6
52	CG4757	DRSC14130	3.51e6	4.05e6
53	CG15186	DRSC12566	3.52e6	4.02e6
54	Arl1 (ADP ribosylation factor-like 1)	DRSC09667	3.76e6	4.29e6
55	spir (spire)	DRSC03619	3.63e6	4.13e6
56	mRpL41 (mitochondrial ribosomal protein L41)	DRSC06257	3.49e6	4.01e6
57	CG11227	DRSC20476	3.53e6	4.01e6
58	caps (capricious)	DRSC11333	3.63e6	4.06e6
59	caps (capricious)	DRSC22224	3.82e6	4.14e6
60	Acsx2 (Acyl-CoA synthetase X2)	DRSC14308	3.47e6	3.76e6
61	Dhc36C (Dynein heavy chain at 36C)	DRSC03315	3.61e6	3.98e6
62	CG14621	DRSC20635	3.61e6	4.18e6
63	CG34330	DRSC20043	3.64e6	4.14e6
64	CG42232	DRSC15018	3.43e6	3.88e6
65	CG42232	DRSC15019	3.56e6	3.99e6
66	BomS2 (Bomanin Short 2)	DRSC21488	3.58e6	4.07e6
67	ph-d (polyhomeotic distal)	DRSC18819	2.95e6	3.68e6
68	ph-d (polyhomeotic distal)	DRSC23191	3.79e6	4.24e6

6 successive entries already listed, for reference:
no.	gene knocked down	DRSC id	mean viability with MMS	viability with MMS, replicate 1
11	cta (concertina)	DRSC03769	3.50e6	3.84e6
12	CSN1a (COP9 signalosome subunit 1a)	DRSC01951	3.46e6	3.93e6
13	CG42729	DRSC10236	3.47e6	3.92e6
14	S-Lap2 (Sperm-Leucylaminopeptidase 2)	DRSC10628	3.74e6	4.25e6
15	sPLA2 (secretory Phospholipase A2)	DRSC06041	3.53e6	3.98e6
16	Ugt35C1 (UDP-glycosyltransferase family 35 member C1)	DRSC16080	3.37e6	3.80e6
